Test results as given in the supplement of paper PMC11546906.
Counter-ions that a name gives are not always drawn. This is one part of the list. This data set is noisy: repeats of one test often differ as much as different tests do.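 FDA-approved drugs were each paired with colistin at one-eighth its MIC and screened against a multidrug-resistant, mcr-1-positive clinical E. coli isolate, with OD600 read after 24 h. Drug-free bacteria served as growth control, plain broth as blank. Combinations were active if OD600 dropped below 0.2.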

System: Escherichia coli 42 (mcr-1-positive clinical isolate)
Test: OD600 after 24 h growth with compound plus colistin (absorbance units (OD600)); higher = more bacterial growth (less inhibition)
Details: first compound 25 µM; colistin concentration 0.5 ug/mL; incubation time 24 h; 37 °C

Compound | OD600
CN(C)CCC=C1c2ccccc2COc2ccccc21 [Doxepin hydrochloride] + CCC(C)CCCC(=O)N[C@@H](CCN)C(=O)N[C@H](C(=O)N[C@@H](CCN)C(=O)N[C@H]1CCNC(=O)[C@H]([C@@H](C)O)NC(=O)[C@H](CCN)NC(=O)[C@H](CCN)NC(=O)[C@H](CC(C)C)NC(=O)[C@@H](CC(C)C)NC(=O)[C@H](CCN)NC1=O)[C@@H](C)O [colistin] | inactive: 0.9
CCNC(=O)CCC/C=C\C[C@@H]1[C@@H](/C=C/[C@@H](O)CCc2ccccc2)[C@H](O)C[C@@H]1O [Bimatoprost] + CCC(C)CCCC(=O)N[C@@H](CCN)C(=O)N[C@H](C(=O)N[C@@H](CCN)C(=O)N[C@H]1CCNC(=O)[C@H]([C@@H](C)O)NC(=O)[C@H](CCN)NC(=O)[C@H](CCN)NC(=O)[C@H](CC(C)C)NC(=O)[C@@H](CC(C)C)NC(=O)[C@H](CCN)NC1=O)[C@@H](C)O [colistin] | inactive: 0.941
C=C1[C@H](CO)[C@@H](O)C[C@@H]1n1cnc2c(=O)[nH]c(N)nc21 [Entecavir] + CCC(C)CCCC(=O)N[C@@H](CCN)C(=O)N[C@H](C(=O)N[C@@H](CCN)C(=O)N[C@H]1CCNC(=O)[C@H]([C@@H](C)O)NC(=O)[C@H](CCN)NC(=O)[C@H](CCN)NC(=O)[C@H](CC(C)C)NC(=O)[C@@H](CC(C)C)NC(=O)[C@H](CCN)NC1=O)[C@@H](C)O [colistin] | inactive: 0.975
c1ccc2c(CC3=NCCN3)cccc2c1 [Naphazoline hydrochloride] + CCC(C)CCCC(=O)N[C@@H](CCN)C(=O)N[C@H](C(=O)N[C@@H](CCN)C(=O)N[C@H]1CCNC(=O)[C@H]([C@@H](C)O)NC(=O)[C@H](CCN)NC(=O)[C@H](CCN)NC(=O)[C@H](CC(C)C)NC(=O)[C@@H](CC(C)C)NC(=O)[C@H](CCN)NC1=O)[C@@H](C)O [colistin] | inactive: 1.1
